Strings that start with PEPTIDE1 are HELM notation: dots part the residues, brackets hold end groups and non-standard residues.
Test: general procedure: solution-phase peptide synthesis; mixed anhydride (isobutyl chloroformate or diphenylphosphinyl chloride); acyl az
[1] = coupling step, phosphate, hydrochloride or free base (per example)
[2] = coupling step, phosphate, hydrochloride or free base (per example), run 1
[3] = coupling step, phosphate, hydrochloride or free base (per example), run 2
[4] = late stage modification step, phosphate, hydrochloride or free base (per example)
[5] = late stage modification step, trifluoroacetate salt
[6] = late stage modification step, phosphate (1:1) salt sesquihydrate
[7] = late stage modification step, phosphate (1:1) salt
[8] = late stage modification step, phosphate (1:2) salt dihydrate
[9] = late stage modification step, phosphate (1:1) salt dihydrate
[10] = late stage modification step, hydrochloride salt monohydrate
[11] = late stage modification step, hydrochloride salt trihydrate
[12] = late stage modification step, phosphate (1:1) salt tetrahydrate

## BocDBpa-DTrp-Leu-MetNH2
[1]
  step yield: 19%

## BocDPro-Phe-Phe-Gly-Leu-MetNH2
[1]
  step yield: 58%

## BocLBpa-DTrp-Leu-MetNH2
[1]
  step yield: 19%

## BocPro-DBpa-Phe-DPhe-Leu-MetNH2
[1]
  step yield: 44%

## BocPro-DPhe-Bgl-DPhe-Leu-MetNH2
[1]
  step yield: 58%

## BocPro-DPhe-DBpa-DTrp-Leu-MetNH2
[1]
  step yield: 46%

## BocPro-DPhe-Hfe-DPhe-Leu-MetNH2
[1]
  step yield: 69%

## BocPro-DPhe-LBpa-DTrp-Leu-MetNH2
[1]
  step yield: 66%

## BocPro-DPhe-Pgl-DPhe-Leu-MetNH2
[1]
  step yield: 68%

## BocPro-DPhe-Phe-DPhe-Leu-MetNH2
[1]
  step yield: 91%

## BocPro-DPhe-Phe-DPhe-Leu-NleNH2
[1]
  step yield: 51%

## BocPro-DPhe-Phe-Gly-Leu-MetNH2
[1]
  step yield: 82%

## BocPro-DPhe-Phe-Trp-Leu-MetNH2
[1]
  step yield: 97%

## BocPro-DPhg-Phe-Dphe-Leu-MetNH2
[1]
  step yield: 89%

## BocPro-DTrp-Gly-DTrp-Leu-MetNH2
[1]
  step yield: 36%

## BocPro-DTrp-MePhe-DTrp-Leu-MetNH2
[1]
  step yield: 31%

## BocPro-DTrp-Phe-DArg(Tos)-Leu-MetNH2
[1]
  step yield: 46%

## BocPro-DTrp-Phe-DLys(Boc)-Leu-MetNH2
[1]
  step yield: 46%

## BocPro-DTrp-Phe-DTrp-Leu-MeMetNH2
[1]
  step yield: 60%

## BocPro-DTrp-Phe-DTrp-Leu-MeNleNH2
[1]
  step yield: 64%

## BocPro-DTrp-Phe-DTrp-Leu-MetNH2
[2]
  step yield: 60%
[3]
  step yield: 57%

## BocPro-DTrp-Phe-DTrp-MeLeu-MetNH2
[1]
  step yield: 64%

## BocPro-DTrp-Phe-MeDTrp-Leu-MetNH2
[1]
  step yield: 57%

## BocPro-DTrp-Phe-MeDTrpNHNH2
[4]
  step yield: 92%

## BocPro-DTrp-Phe-MeDTrpOMe
[1]
  step yield: 27%

## BocPro-LBpa-Phe-DPhe-Leu-MetNH2
[1]
  step yield: 51%

## BocPro-MeDTrp-Phe-DTrp-Leu-MetNH2
[1]
  step yield: 20%

## BocPro-MePhe-Phe-Gly-Leu-MetNH2
[1]
  step yield: 50%

## BocPro-Pcp-Pcp-Gly-Leu-MetNH2
[1]
  step yield: 35%

## BocPro-Phe-MePhe-Gly-Leu-MetNH2
[1]
  step yield: 100%

## BocPro-Phe-MePhe-GlyOBz
[1]
  step yield: 55%

## BocPro-Phe-MePhe-GlyOH
[4]
  step yield: 100%

## BocPro-Phe-MePhe-Sar-Leu-MetNH2
[1]
  step yield: 75%

## BocPro-Phe-Phe-CabLeu-MetNH2
[1]
  step yield: 36%

## BocPro-Phe-Phe-DAla-Leu-MetNH2
[1]
  step yield: 66%

## BocPro-Phe-Phe-Glu(tBu)-Leu-MetNH2
[1]
  step yield: 77%

## BocPro-Phe-Phe-Glu(tBu)NHNH2
[4]
  step yield: 58%

## BocPro-Phe-Phe-Glu(tBu)OMe
[1]
  step yield: 22%

## BocPro-Phe-Phe-Gly-DLeu-MetNH2
[1]
  step yield: 59%

## BocPro-Phe-Phe-Gly-Gal-MetNH2
[1]
  step yield: 28%

## BocPro-Phe-Phe-Gly-Leu-DMetNH2
[1]
  step yield: 60%

## BocPro-Phe-Phe-Gly-Leu-MetNH2 (Example 7)
[1]
  step yield: 79%

## BocPro-Phe-Phe-Gly-Leu-NleNH2
[1]
  step yield: 69%

## BocPro-Phe-Phe-Gly-MeLeu-MetNH2
[1]
  step yield: 49%

## BocPro-Phe-Phe-GlyOBz
[2]
  step yield: 76%
[3]
  step yield: 66%

## BocPro-Phe-Phe-GlyOH
Late stage modification step, phosphate, hydrochloride or free base (per example), run 1
  step yield: 90%
Late stage modification step, phosphate, hydrochloride or free base (per example), run 2
  step yield: 100%

## BocPro-Phe-Phe-LDap(Boc)- LeuNHNH2
[4]
  step yield: 36%

## BocPro-Phe-Phe-LDap(Boc)-Leu-MetNH2
[1]
  step yield: 67%

## BocPro-Phe-Phe-LDap(Boc)-LeuOMe
[1]
  step yield: 75%

## BocPro-Phe-Phe-Sar-Leu-MetNH2
[1]
  step yield: 45%

## HDBpa-DTrp-Leu-MetNH2
[5]
  step yield: 100%

## HLBpa-DTrp-Leu-MetNH2
[5]
  step yield: 100%

## HPro-DPhe-Phe-DTrp-Leu-MetNH2
Late stage modification step, phosphate (1:2) salt tetrahydrate
  step yield: 32%

## HPro-DTrp-Phe-DArg(Tos)-Leu-MetNH2
[4]
  step yield: 78%

## HPro-MeDTrp-Phe-DTrp-Leu-MetNH2
Late stage modification step, phosphate salt monohydrate
  step yield: 67%

## HPro-Phe-Phe-CabLeu-MetNH2
Late stage modification step, hydrochloride salt, cyclic, sequence written open
  step yield: 62%

## PEPTIDE1{P.F.F.E.L.M.[am]}$$$$V2.0
Late stage modification step, hydrochloride salt
  step yield: 38%

## PEPTIDE1{P.F.F.G.L.[Nle].[am]}$$$$V2.0
[6]
  step yield: 65%

## PEPTIDE1{P.F.F.G.L.[dM].[am]}$$$$V2.0
[6]
  step yield: 72%

## PEPTIDE1{P.F.F.G.[Gal].M.[am]}$$$$V2.0
Late stage modification step, dihydrochloride acetate salt hydrate
  step yield: 35%

## PEPTIDE1{P.F.F.G.[MeLeu].M.[am]}$$$$V2.0
Late stage modification step, free base
  step yield: 36%

## PEPTIDE1{P.F.F.G.[dL].M.[am]}$$$$V2.0
[7]
  step yield: 59%

## PEPTIDE1{P.F.F.[DBpa].L.M.[am]}$$$$V2.0
Late stage modification step, dihydrochloride salt hydrate (2:7)
  step yield: 91%

## PEPTIDE1{P.F.F.[LBpa].L.M.[am]}$$$$V2.0
Late stage modification step, dihydrochloride salt tetrahydrate
  step yield: 79%

## PEPTIDE1{P.F.F.[LDap].L.M.[am]}$$$$V2.0
[8]
  step yield: 95%

## PEPTIDE1{P.F.F.[Sar].L.M.[am]}$$$$V2.0
[6]
  step yield: 59%

## PEPTIDE1{P.F.F.[dA].L.M.[am]}$$$$V2.0
[6]
  step yield: 66%

## PEPTIDE1{P.F.[MePhe].G.L.M.[am]}$$$$V2.0
[9]
  step yield: 22%

## PEPTIDE1{P.F.[MePhe].[Sar].L.M.[am]}$$$$V2.0
[7]
  step yield: 59%

## PEPTIDE1{P.F.[dF].G.L.M.[am]}$$$$V2.0
[10]
  step yield: 31%

## PEPTIDE1{P.[DBpa].F.[dF].L.M.[am]}$$$$V2.0
Late stage modification step, dihydrochloride salt hexahydrate
  step yield: 59%

## PEPTIDE1{P.[DPhg].F.[dF].L.M.[am]}$$$$V2.0
Late stage modification step, phosphate (1:1) salt pentahydrate
  step yield: 12%

## PEPTIDE1{P.[LBpa].F.[dF].L.M.[am]}$$$$V2.0
Late stage modification step, dihydrochloride salt hydrate (2:9)
  step yield: 53%

## PEPTIDE1{P.[MePhe].F.G.L.M.[am]}$$$$V2.0
[10]
  step yield: 85%

## PEPTIDE1{P.[Pcp].[Pcp].G.L.M.[am]}$$$$V2.0
Late stage modification step, hydrochloride salt sesquihydrate
  step yield: 76%

## PEPTIDE1{P.[dF].F.G.L.M.[am]}$$$$V2.0
Late stage modification step, phosphate (1:1) salt monohydrate
  step yield: 59%

## PEPTIDE1{P.[dF].F.[dF].L.M.[am]}$$$$V2.0
[9]
  step yield: 44%

## PEPTIDE1{P.[dF].F.[dF].L.[Nle].[am]}$$$$V2.0
[11]
  step yield: 36%

## PEPTIDE1{P.[dF].[Bgl].[dF].L.M.[am]}$$$$V2.0
Late stage modification step, hydrochloride salt dihydrate
  step yield: 86%

## PEPTIDE1{P.[dF].[DBpa].[dW].L.M.[am]}$$$$V2.0
Late stage modification step, phosphate (2:3) salt trihydrate
  step yield: 37%

## PEPTIDE1{P.[dF].[Hfe].[dF].L.M.[am]}$$$$V2.0
Late stage modification step, hydrochloride diacetate salt pentahydrate
  step yield: 21%

## PEPTIDE1{P.[dF].[LBpa].[dW].L.M.[am]}$$$$V2.0
Late stage modification step, phosphate (2:3) salt hydrate (2:5)
  step yield: 37%

## PEPTIDE1{P.[dF].[Pgl].[dF].L.M.[am]}$$$$V2.0
[11]
  step yield: 75%

## PEPTIDE1{P.[dW].F.[MeDTrp].L.M.[am]}$$$$V2.0
Late stage modification step, hydrochloride hydrate (3:2)
  step yield: 59%

## PEPTIDE1{P.[dW].F.[dK].L.M.[am]}$$$$V2.0
Late stage modification step, phosphate (1:1) acetate (1:3) salt
  step yield: 26%

## PEPTIDE1{P.[dW].F.[dR].L.M.[am]}$$$$V2.0
Late stage modification step, dihydrochloride acetate (2:1) salt hydrate (2:5)
  step yield: 61%

## PEPTIDE1{P.[dW].F.[dW].L.M.[am]}$$$$V2.0
Late stage modification step, phosphate (1:1) salt hydrate (2:5)
  step yield: 33%
Late stage modification step, phosphate (1:1) salt hydrate (2:7)
  step yield: 62%

## PEPTIDE1{P.[dW].F.[dW].L.[MeMet].[am]}$$$$V2.0
[8]
  step yield: 57%

## PEPTIDE1{P.[dW].F.[dW].L.[MeNle].[am]}$$$$V2.0
[12]
  step yield: 30%

## PEPTIDE1{P.[dW].F.[dW].[MeLeu].M.[am]}$$$$V2.0
[12]
  step yield: 67%

## PEPTIDE1{P.[dW].G.[dW].L.M.[am]}$$$$V2.0
Late stage modification step, phosphate (2:3) salt
  step yield: 59%

## PEPTIDE1{P.[dW].[MePhe].[dW].L.M.[am]}$$$$V2.0
[8]
  step yield: 23%

## PEPTIDE1{[dP].F.F.G.L.M.[am]}$$$$V2.0
[6]
  step yield: 72%

Reference: patent US4472305A (Sterling Drug Inc., priority 1983, dated 1984)
